In the supplement of paper PMC8728848:
Some of the results follow.

Columns and labels:
Experiment in all cases: glycan array binding signal (z-score within array); higher = stronger binding
Conditions in all cases: glycan notation: IUPAC condensed, linker removed
[1] = target: GalNAc(a1-3)GalNAc(b1-3)Gal(a1-4)Gal(b1-4)GlcNAc
Procedure, shortened: (§1)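 Negative Z-scores can be read as non-binding. The Z-score is calculated within each array and then averaged across arrays of one protein sequence at different concentrations or buffers and across linkers. Arrays, 3228 in all, were curated from the Consortium for Functional Glycomics database and kept only where the protein sequence was available.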

GalNAc(b1-3)Gal = target: GalNAc(b1-3)Gal
Procedure, shortened: as §1

[2] = target: GalNAc(b1-3)Gal(a1-4)Gal(b1-4)GlcNAc
Procedure, shortened: as §1

[3] = target: GalNAc(b1-3)Gal(a1-4)Gal(b1-4)GlcNAc(b1-3)Gal(b1-4)Glc
Procedure, shortened: as §1

[4] = target: GalNAc(b1-3)Gal(a1-6)Gal(b1-4)Glc
Procedure, shortened: as §1

GalNAc(b1-3)GalNAc = target: GalNAc(b1-3)GalNAc
Procedure, shortened: as §1

GalNAc(b1-3)GlcNAc = target: GalNAc(b1-3)GlcNAc
Procedure, shortened: as §1

GalNAc(b1-4)Gal(b1-4)Glc = target: GalNAc(b1-4)Gal(b1-4)Glc
Procedure, shortened: as §1

GalNAc(b1-4)GlcNAc = target: GalNAc(b1-4)GlcNAc
Procedure, shortened: as §1

[5] = target: GalNAc(b1-4)GlcNAc(b1-2)Man
Procedure, shortened: as §1

[6] = target: GalNAc(b1-4)GlcNAc(b1-2)Man(a1-3)[GalNAc(b1-4)GlcNAc(b1-2)Man(a1-6)]Man(b1-4)GlcNAc(b1-4)GlcNAc
Procedure, shortened: as §1

[7] = target: GalNAc(b1-4)GlcNAc(b1-3)GalNAc(b1-4)GlcNAc
Procedure, shortened: as §1

GalNAc(b1-4)GlcNAc6S = target: GalNAc(b1-4)GlcNAc6S
Procedure, shortened: as §1

GalNAc(b1-6)GalNAc = target: GalNAc(b1-6)GalNAc
Procedure, shortened: as §1

GalNAc3S(b1-4)GlcNAc = target: GalNAc3S(b1-4)GlcNAc
Procedure, shortened: as §1

GalNAc3S(b1-4)GlcNAc3S = target: GalNAc3S(b1-4)GlcNAc3S
Procedure, shortened: as §1

[8] = target: GalNAc3S(b1-4)[Fuc(a1-3)]GlcNAc
Procedure, shortened: as §1

GalNAc4S6S(b1-4)GlcNAc = target: GalNAc4S6S(b1-4)GlcNAc
Procedure, shortened: as §1

GalNAc6S(b1-4)GlcNAc = target: GalNAc6S(b1-4)GlcNAc
Procedure, shortened: as §1

Glc(a1-4)Glc = target: Glc(a1-4)Glc
Procedure, shortened: as §1

[9] = target: Glc(a1-4)Glc(a1-4)Glc(a1-4)Glc
Procedure, shortened: as §1

Glc(a1-6)Glc(a1-6)Glc = target: Glc(a1-6)Glc(a1-6)Glc
Procedure, shortened: as §1

[10] = target: Glc(a1-6)Glc(a1-6)Glc(a1-6)Glc
Procedure, shortened: as §1

Glc(b1-4)Glc = target: Glc(b1-4)Glc
Procedure, shortened: as §1

Glc(b1-6)Glc = target: Glc(b1-6)Glc
Procedure, shortened: as §1

GlcA(b1-3)Gal = target: GlcA(b1-3)Gal
Procedure, shortened: as §1

GlcA(b1-3)GlcNAc = target: GlcA(b1-3)GlcNAc
Procedure, shortened: as §1

GlcA(b1-6)Gal = target: GlcA(b1-6)Gal
Procedure, shortened: as §1

[11] = target: GlcA3S(b1-3)Gal(b1-4)GlcNAc(b1-2)Man
Procedure, shortened: as §1

[12] = target: GlcA3S(b1-3)Gal(b1-4)GlcNAc(b1-3)Gal(b1-4)Glc
Procedure, shortened: as §1

[13] = target: GlcNAc(a1-3)Gal(b1-4)GlcNAc
Procedure, shortened: as §1

[14] = target: GlcNAc(a1-4)Gal(b1-3)GlcNAc
Procedure, shortened: as §1

[15] = target: GlcNAc(a1-4)Gal(b1-4)GalNAc
Procedure, shortened: as §1

[16] = target: GlcNAc(a1-4)Gal(b1-4)GlcNAc
Procedure, shortened: as §1

[17] = target: GlcNAc(a1-4)Gal(b1-4)GlcNAc(b1-3)Gal(b1-4)Glc
Procedure, shortened: as §1

[18] = target: GlcNAc(a1-4)Gal(b1-4)GlcNAc(b1-3)Gal(b1-4)GlcNAc
Procedure, shortened: as §1

[19] = target: GlcNAc(a1-4)Gal(b1-4)GlcNAc(b1-3)Gal(b1-4)GlcNAc(b1-3)Gal(b1-4)GlcNAc
Procedure, shortened: as §1

[20] = target: GlcNAc(a1-4)Gal(b1-4)GlcNAc(b1-3)Gal(b1-4)[Fuc(a1-3)]GlcNAc(b1-3)Gal(b1-4)[Fuc(a1-3)]GlcNAc
Procedure, shortened: as §1

B1: Epa11 (Candida glabrata) (protein)
chain: MGSSHHHHHHSSGLVPRGSHMASSNAPNYPVGCSPSVGTQLTPGLSLEVYAYPMDGNNGYCWNATYKDPEFPRSGYLKNKLLGKADGVVGPLNFLAKNKDCSPKVDTLPAGFNFPQPITVTNFTMVLFGYLAPKQSGKYTFKLLADDLLLLNLGATNAFDCCNREATKNNLGEFLAYNLWPNQDKNVTVYLEKGVYYPLRLFFNNRDGGSQLDFSYYFNDSPAPLTDFSGMFFSVPDGAECPARI
glycan array binding signal (z-score) [1]: -0.099 | glycan array binding signal (z-score) (GalNAc(b1-3)Gal): -0.563 | glycan array binding signal (z-score) [2]: -0.222 | glycan array binding signal (z-score) [3]: -0.094 | glycan array binding signal (z-score) [4]: -0.117 | glycan array binding signal (z-score) (GalNAc(b1-3)GalNAc): -0.599 | glycan array binding signal (z-score) (GalNAc(b1-3)GlcNAc): -0.632 | glycan array binding signal (z-score) (GalNAc(b1-4)Gal(b1-4)Glc): 1.32 | glycan array binding signal (z-score) (GalNAc(b1-4)GlcNAc): 0.706 | glycan array binding signal (z-score) [5]: -0.849 | glycan array binding signal (z-score) [6]: -0.233 | glycan array binding signal (z-score) [7]: 0.195 | glycan array binding signal (z-score) (GalNAc(b1-4)GlcNAc6S): -0.013 | glycan array binding signal (z-score) (GalNAc(b1-6)GalNAc): -0.649 | glycan array binding signal (z-score) (GalNAc3S(b1-4)GlcNAc): -0.07 | glycan array binding signal (z-score) (GalNAc3S(b1-4)GlcNAc3S): 1.57 | glycan array binding signal (z-score) [8]: -0.571 | glycan array binding signal (z-score) (GalNAc4S6S(b1-4)GlcNAc): 0.884 | glycan array binding signal (z-score) (GalNAc6S(b1-4)GlcNAc): -0.396 | glycan array binding signal (z-score) (Glc(a1-4)Glc): -1.42 | glycan array binding signal (z-score) [9]: 0.482 | glycan array binding signal (z-score) (Glc(a1-6)Glc(a1-6)Glc): -0.516 | glycan array binding signal (z-score) [10]: -0.333 | glycan array binding signal (z-score) (Glc(b1-4)Glc): -1.41 | glycan array binding signal (z-score) (Glc(b1-6)Glc): -0.513 | glycan array binding signal (z-score) (GlcA(b1-3)Gal): -0.056 | glycan array binding signal (z-score) (GlcA(b1-3)GlcNAc): -0.406 | glycan array binding signal (z-score) (GlcA(b1-6)Gal): 0.675 | glycan array binding signal (z-score) [11]: 0.356 | glycan array binding signal (z-score) [12]: -0.579 | glycan array binding signal (z-score) [13]: -0.193 | glycan array binding signal (z-score) [14]: -0.319 | glycan array binding signal (z-score) [15]: -0.891 | glycan array binding signal (z-score) [16]: 0.787 | glycan array binding signal (z-score) [17]: -0.03 | glycan array binding signal (z-score) [18]: 0.381 | glycan array binding signal (z-score) [19]: 0.433 | glycan array binding signal (z-score) [20]: 0.211
